Experiment [1] concerns the target T1, TNF receptor 1 (TNFR1), endogenous in L929 cells (mouse (endogenous in L929)) (UniProt P25118).
T1 sequence: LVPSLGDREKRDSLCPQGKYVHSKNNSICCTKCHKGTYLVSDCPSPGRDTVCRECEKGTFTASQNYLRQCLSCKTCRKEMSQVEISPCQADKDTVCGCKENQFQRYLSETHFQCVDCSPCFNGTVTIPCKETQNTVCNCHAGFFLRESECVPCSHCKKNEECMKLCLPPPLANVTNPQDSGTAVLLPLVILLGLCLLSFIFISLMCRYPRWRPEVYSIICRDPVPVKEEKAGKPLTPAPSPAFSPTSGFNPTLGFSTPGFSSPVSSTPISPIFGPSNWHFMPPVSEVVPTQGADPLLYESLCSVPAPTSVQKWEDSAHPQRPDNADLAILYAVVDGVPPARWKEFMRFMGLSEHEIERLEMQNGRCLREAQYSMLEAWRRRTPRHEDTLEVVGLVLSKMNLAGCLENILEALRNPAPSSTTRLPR
Briefly: co-IP; complex I immunoprecipitation from RIP1 KO L929 cells reconstituted with RIP1 variants; cells treated with 10 ng/ml Flag-mTNF, lysate precipitated with anti-Flag M2 beads at 4 °C overnight, western blotting. In general terms: Immunoblotting shows a protein as a band on a membrane.

Experiment [2] has as its target T2, Flag-RIP1 (Flag tag knocked in at the N-terminal of Rip1 in L929 cells) (mouse (endogenous in L929)), Q60855.
T2 chain: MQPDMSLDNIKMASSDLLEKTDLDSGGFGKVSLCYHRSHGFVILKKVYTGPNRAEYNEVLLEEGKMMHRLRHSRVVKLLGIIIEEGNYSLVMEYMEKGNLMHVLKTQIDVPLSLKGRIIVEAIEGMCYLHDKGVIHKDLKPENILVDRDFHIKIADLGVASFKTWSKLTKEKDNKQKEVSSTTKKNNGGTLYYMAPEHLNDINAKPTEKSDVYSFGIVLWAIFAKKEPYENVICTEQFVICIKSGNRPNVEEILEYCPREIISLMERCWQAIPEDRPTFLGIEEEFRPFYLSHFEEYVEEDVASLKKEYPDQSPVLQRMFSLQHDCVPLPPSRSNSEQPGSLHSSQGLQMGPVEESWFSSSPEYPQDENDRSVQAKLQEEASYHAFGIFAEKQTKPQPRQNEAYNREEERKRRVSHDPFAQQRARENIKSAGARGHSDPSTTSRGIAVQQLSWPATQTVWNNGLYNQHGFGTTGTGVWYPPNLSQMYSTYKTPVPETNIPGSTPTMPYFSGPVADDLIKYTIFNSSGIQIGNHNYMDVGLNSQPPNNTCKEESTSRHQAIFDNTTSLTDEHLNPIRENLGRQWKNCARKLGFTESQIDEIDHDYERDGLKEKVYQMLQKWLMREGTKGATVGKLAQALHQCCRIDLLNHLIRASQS
Briefly: co-IP; necrosome immunoprecipitation from L929 cells (Flag-RIP1 knock-in or RIP1 KO reconstituted with RIP1 variants) treated with mTNF + zVAD, with or without BHA/amytal; anti-Flag M2 beads at 4 °C overnight; blots with anti-RIP1, anti-RIP3, anti-FADD. The note with it: remark: other sources report otherwise.

The target of experiment [3] is T3, Flag-tagged wildtype RIP1 reconstituted in RIP1 KO L929 cells (mouse), Q60855.
T3 chain: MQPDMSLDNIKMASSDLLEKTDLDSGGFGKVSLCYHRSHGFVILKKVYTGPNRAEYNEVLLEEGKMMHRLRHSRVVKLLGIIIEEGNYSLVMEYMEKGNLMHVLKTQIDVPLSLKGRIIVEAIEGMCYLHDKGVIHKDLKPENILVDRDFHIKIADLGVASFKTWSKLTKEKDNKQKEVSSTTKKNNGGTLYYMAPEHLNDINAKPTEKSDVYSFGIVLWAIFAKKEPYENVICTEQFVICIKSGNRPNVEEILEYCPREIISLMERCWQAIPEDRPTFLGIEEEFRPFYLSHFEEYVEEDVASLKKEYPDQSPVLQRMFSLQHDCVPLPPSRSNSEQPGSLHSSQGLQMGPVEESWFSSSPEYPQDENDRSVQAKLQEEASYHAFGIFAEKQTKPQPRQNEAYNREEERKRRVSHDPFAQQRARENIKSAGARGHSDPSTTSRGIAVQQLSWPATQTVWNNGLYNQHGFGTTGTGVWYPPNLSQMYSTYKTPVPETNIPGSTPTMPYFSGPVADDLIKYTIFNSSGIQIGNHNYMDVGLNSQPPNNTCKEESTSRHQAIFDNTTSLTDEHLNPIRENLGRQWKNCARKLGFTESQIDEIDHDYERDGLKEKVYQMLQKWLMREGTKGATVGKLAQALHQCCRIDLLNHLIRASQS
Described as above. The conditions noted are these: remark: other sources report otherwise.

Experiment [4] has as its target T4, Flag-tagged WT RIP1 expressed in RIP1 KO HEK293T cells (mouse), Q60855.
T4 chain: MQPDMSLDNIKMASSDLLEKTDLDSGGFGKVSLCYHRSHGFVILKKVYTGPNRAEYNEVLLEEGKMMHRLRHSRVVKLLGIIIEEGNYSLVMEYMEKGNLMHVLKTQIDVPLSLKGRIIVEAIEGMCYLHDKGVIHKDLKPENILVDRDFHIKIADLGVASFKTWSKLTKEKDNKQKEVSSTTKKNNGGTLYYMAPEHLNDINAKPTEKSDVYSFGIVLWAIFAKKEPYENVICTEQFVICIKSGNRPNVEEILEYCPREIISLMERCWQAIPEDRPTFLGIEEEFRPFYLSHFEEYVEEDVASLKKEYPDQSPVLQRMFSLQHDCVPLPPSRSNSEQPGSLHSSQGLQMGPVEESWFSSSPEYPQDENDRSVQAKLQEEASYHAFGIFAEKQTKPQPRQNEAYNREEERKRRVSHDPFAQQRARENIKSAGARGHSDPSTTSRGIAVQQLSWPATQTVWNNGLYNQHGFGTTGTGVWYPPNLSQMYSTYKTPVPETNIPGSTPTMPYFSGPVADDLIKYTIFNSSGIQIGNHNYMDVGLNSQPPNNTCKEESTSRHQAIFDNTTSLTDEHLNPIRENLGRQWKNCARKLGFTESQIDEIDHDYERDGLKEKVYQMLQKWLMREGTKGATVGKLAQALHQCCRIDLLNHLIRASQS
Briefly: co-IP; co-expression in RIP1 KO HEK293T cell line and co-immunoprecipitation; details in Supplementary Fig. 7, not shown. The note with it: remark: other sources report otherwise.

No constants are given. Whether binding was seen depends on the method and setting. Binding seen in cells or lysates may run through a third protein. Some results given as binding are weak or reduced against the parent protein; the word gives no strength. For some of these results: Tags and fused reporters may be left off the sequences shown.

B1: TRADD, endogenous in L929 cells (protein, UniProt Q3U0V2 1-310)
chain: MAAGQNGHEEWVGSAYLFLESAVDKVILSEAYTDPKKKVAIYKALQTALSESGDSSDVLQILKIHCSDPQLIVQLRFCGRVLCGRFLQAYREGALRTALQRCMAPALAQEALRLQLELRAGAEQLDSWLTDEERCLNYILAQKPDRLRDEELAELEDELCKLTCDCTGQGGAIQVASAGSKFPVSSPTEEKPLPAACQTFLFHGQLVVNRPLTLQDQQTFARSVGLKWRRVGRSLQRNCRALRDPALDSLAYEYERDGLYEQAFQLLRRFMQAEGRRATLQRLVEALEENELTSLAEDLLGQAEPDGGLA
For B1, in experiment [1], the binding entry is recorded as “binds”.

B2: RIP3, endogenous in L929 cells, Q9QZL0 1-486 (protein)
chain: MSSVKLWPTGASAVPLVSREELKKLEFVGKGGFGVVFRAHHRTWNHDVAVKIVNSKKISWEVKAMVNLRNENVLLLLGVTEDLQWDFVSGQALVTRFMENGSLAGLLQPECPRPWPLLCRLLQEVVLGMCYLHSLNPPLLHRDLKPSNILLDPELHAKLADFGLSTFQGGSQSGSGSGSGSRDSGGTLAYLDPELLFDVNLKASKASDVYSFGILVWAVLAGREAELVDKTSLIRETVCDRQSRPPLTELPPGSPETPGLEKLKELMIHCWGSQSENRPSFQDCEPKTNEVYNLVKDKVDAAVSEVKHYLSQHRSSGRNLSAREPSQRGTEMDCPRETMVSKMLDRLHLEEPSGPVPGKCPERQAQDTSVGPATPARTSSDPVAGTPQIPHTLPFRGTTPGPVFTETPGPHPQRNQGDGRHGTPWYPWTPPNPMTGPPALVFNNCSEVQIGNYNSLVAPPRTTASSSAKYDQAQFGRGRGWQPFHK
As to B2, the binding result in experiment [2] and in experiment [3] was “binds” each time.

B3: RIP3 co-expressed with RIP1 in RIP1 KO HEK293T cells, Q9QZL0 1-486 (protein)
chain: MSSVKLWPTGASAVPLVSREELKKLEFVGKGGFGVVFRAHHRTWNHDVAVKIVNSKKISWEVKAMVNLRNENVLLLLGVTEDLQWDFVSGQALVTRFMENGSLAGLLQPECPRPWPLLCRLLQEVVLGMCYLHSLNPPLLHRDLKPSNILLDPELHAKLADFGLSTFQGGSQSGSGSGSGSRDSGGTLAYLDPELLFDVNLKASKASDVYSFGILVWAVLAGREAELVDKTSLIRETVCDRQSRPPLTELPPGSPETPGLEKLKELMIHCWGSQSENRPSFQDCEPKTNEVYNLVKDKVDAAVSEVKHYLSQHRSSGRNLSAREPSQRGTEMDCPRETMVSKMLDRLHLEEPSGPVPGKCPERQAQDTSVGPATPARTSSDPVAGTPQIPHTLPFRGTTPGPVFTETPGPHPQRNQGDGRHGTPWYPWTPPNPMTGPPALVFNNCSEVQIGNYNSLVAPPRTTASSSAKYDQAQFGRGRGWQPFHK
In the case of B3, in experiment [4], the binding entry is “binds”.
